Laboratory results published in patent US8613910B2, “Flavonoids as synergists for enhancing the action of self-tanning substances” (Merck Patent GmbH, priority 2005, dated 2013).

Assay: Maillard test: DHA with lysine with or without quercetin in ethylene glycol/water
Protocol: Trial solutions of DHA with lysine with or without quercetin were prepared in an ethylene glycol/water mixture.
It is thus assumed that quercetin is able to prevent the rapid decomposition of DHA in the presence of oxygen.
Maillard test systems used are described in B. Nguyen et al., J. Invest. Dermatol. 120 (2003), 655-661.

Structure (SMILES)	colour of the reaction solution (absence of oxygen)	colour of the reaction solution (presence of oxygen, without quercetin)	colour of the reaction solution (presence of oxygen, quercetin present)
O=C(CO)CO [DHA, 1,3-Dihydroxyacetone]	dark-brown solution	yellow colour	
O=c1c(O)c(-c2ccc(O)c(O)c2)oc2cc(O)cc(O)c12 [quercetin, 3,3′,4′,5,7-pentahydroxyflavone]			changed to brown
